In PMC6117920 one finds binding data, which are given here for two substances.

Sequences of proteins named here, by UniProt entry; tags and fusion partners are left off. Residues count along the entry.
UniProt P16070, residues 21-742: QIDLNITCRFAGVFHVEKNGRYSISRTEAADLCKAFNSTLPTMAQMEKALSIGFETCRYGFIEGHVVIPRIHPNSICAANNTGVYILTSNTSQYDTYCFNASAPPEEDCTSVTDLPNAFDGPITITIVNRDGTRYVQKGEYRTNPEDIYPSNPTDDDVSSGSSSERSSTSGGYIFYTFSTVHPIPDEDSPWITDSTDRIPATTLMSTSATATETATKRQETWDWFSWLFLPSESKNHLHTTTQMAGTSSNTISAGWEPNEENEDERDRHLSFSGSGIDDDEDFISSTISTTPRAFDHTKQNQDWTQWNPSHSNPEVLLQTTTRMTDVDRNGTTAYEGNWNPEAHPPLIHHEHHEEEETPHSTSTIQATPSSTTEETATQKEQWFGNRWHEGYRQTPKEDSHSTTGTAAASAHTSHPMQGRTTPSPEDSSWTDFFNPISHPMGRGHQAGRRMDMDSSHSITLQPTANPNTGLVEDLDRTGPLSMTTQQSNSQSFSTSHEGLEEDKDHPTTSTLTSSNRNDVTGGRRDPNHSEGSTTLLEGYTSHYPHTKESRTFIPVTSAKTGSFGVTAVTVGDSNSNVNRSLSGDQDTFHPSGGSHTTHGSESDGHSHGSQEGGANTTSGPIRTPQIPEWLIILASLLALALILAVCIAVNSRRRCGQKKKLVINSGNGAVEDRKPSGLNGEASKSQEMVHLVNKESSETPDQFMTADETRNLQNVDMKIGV
UniProt P36222, residues 22-383: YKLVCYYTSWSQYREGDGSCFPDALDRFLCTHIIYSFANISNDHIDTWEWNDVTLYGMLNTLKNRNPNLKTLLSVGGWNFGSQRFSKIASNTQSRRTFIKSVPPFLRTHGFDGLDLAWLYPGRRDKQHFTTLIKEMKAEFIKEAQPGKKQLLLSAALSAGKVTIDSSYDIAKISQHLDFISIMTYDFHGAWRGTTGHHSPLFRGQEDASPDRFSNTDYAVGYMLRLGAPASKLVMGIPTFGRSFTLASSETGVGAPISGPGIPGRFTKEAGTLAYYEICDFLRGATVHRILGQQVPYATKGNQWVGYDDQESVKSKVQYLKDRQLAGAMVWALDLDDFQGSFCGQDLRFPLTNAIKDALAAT

One test concerns the target T1, CD44v6 peptide (human).
T1 sequence (peptide): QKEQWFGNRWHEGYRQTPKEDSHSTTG
Description: ELISA; direct ELISA; CD44v3 peptide or CD44v6 peptide coated at 4 μg/ml in PBS; various concentrations of rhCHI3L1 or rhIL-13Rα2 ECD (control BSA) added, 1 h at RT; detected with anti-CHI3L1 or anti-IL-13Rα2 antibody, absorbance at 450 nm; both purified. (In general: In an ELISA, binding on a coated surface is turned into a signal by an enzyme label.)

Test [1] deals with CD44 (endogenous, gastric cancer cells) (human (endogenous in AGS and MGC803)) (UniProt P16070). As to the kind of experiment: co-IP; lysates of AGS and MGC803 cells in IP buffer (20 mM Tris pH 7.5, 150 mM NaCl, 1% TritonX-100, 1 mM EDTA); control IgG or primary antibody with GammaBind Plus Sepharose, 4°C overnight; western blot.

These are yes or no findings as the source states them, for the method shown. For some assays here: In cells and extracts the contact can be indirect. Some binding calls cover weakened binding; strength is not graded here.

As for “recombinant human CHI3L1 (from UniProt P36222 22-383)”, in the test with CD44v6 peptide (human), the binding entry is “no binding”.

As for “CHI3L1 (endogenous, gastric cancer cells) (from UniProt P36222 22-383)”, the binding result in test [1] was “binds”.
